Test results taken from US20230404969A1, “COMPOSITIONS AND METHOD FOR EFFECTIVE MANAGEMENT OF PERITONITIS” (priority 2022, published 2023).
For at least one compound, name, drawing or mass did not settle the structure.

Tests used:
TNF-α [1] = test: Intracellular TNF-α estimation in LPS activated murine neutrophils (flow cytometry); format: cell-based; conditions: 5 μg/ml, LPS 1 μg/ml, 3 h, ↑ upregulation
Protocol: (§1) Flowcytometric studies were carried out to determine the anti-inflammatory effect of active constituents of Withania somnifera extract on TNF-α and IL-1β cytokine expression in LPS activated murine neutrophils.
(§2) TNF-α and Interleukin 1 beta (IL-1β) cytokines play a major role in the pathogenesis of septic shock induced by LPS (Lipopolysaccharide) endotoxin injection. LPS is an important triggering factor for in vivo systemic inflammatory response. LPS activates neutrophils via engagement of TLR4 (Toll-like receptor 4), resulting in the induction of a characteristic proinflammatory phenotype and prolongation of cell lifespan. In brief, neutrophils extraction was performed by taking murine blood and centrifuging it at 250 g for 20 min. Middle layer was taken and layered with histopaque and incubated for 10 min. The samples were centrifuged at 700 g, the upper layer was taken and Facs Lysing solution added for the lysis of any traces of RBC. The samples were washed with PBS (200 g) for 10 min. Neutrophils were stimulated with. LPS (1 μg/ml) and incubated with test samples for 3 h, in CO2 incubator. The cells were then labelled with conjugated anti-mouse TNF-α monoclonal antibody and anti-mouse IL-1 beta antibody. Incubation of the cells was carried out for 30 min in dark. After washing with PBS (Phosphate buffered saline) the samples were acquired directly on Flowcytometer (BD-LSR, Beckton—Dickinson Biosciences, CA, USA). A fluorescence trigger was set on the […] parameter of the gated neutrophil populations (10,000 events). Fluorescence compensation, data analysis, and data presentation was performed using Cell Quest Pro software (Beckton—Dickinson Biosciences, CA, USA). […] While, the Withania somnifera extract was not effective in mitigating inflammation in peritonitis, withanone is an excellent anti-inflammatory agent.

IL-1β [2] = test: Intracellular IL-1β estimation in LPS activated murine neutrophils (flow cytometry); format: cell-based; conditions: 5 μg/ml, LPS 1 μg/ml, 3 h, ↑ upregulation
Protocol: as §1, §2

TNF-α [3] = test: Extracellular in vivo TNF-α estimation in serum from treated mice after LPS injection (ELISA); conditions: 1 mg/kg p.o for 6 days, serum 90 mins after LPS injection, ↑ upregulation
Protocol: (§3) BALM male mice aged 6-8 weeks were maintained at 22±2° C. under 12/12 h light dark cycle. Mice received oral treatment of test drugs at graded doses (w/v) for 6 days, followed by intravenous injection of 1 mg/kg (Brieva et al. Immunoferon, a glycoconjugate of natural origin, inhibits LPS-induced TNF-α production and inflammatory responses. International Immunopharmacology (2001) 1, 1979-1987). Six mice were employed in each group and experiments were performed in triplicates. Blood was collected from retro-orbital plexus of the experimental animals and serum was separated. TNF-α, IL-1β production was evaluated by a commercial ELISA kit in serum from treated mice, 90 mins after LPS injection.

IL-1β [4] = test: Extracellular in vivo IL-1β estimation in serum from treated mice after LPS injection (ELISA); conditions: 1 mg/kg p.o for 6 days, serum 90 mins after LPS injection, ↑ upregulation
Protocol: as §3

SMILES | Percentage TNF-α inhibition compared to LPS control (TNF-α [1]) | Percentage IL-1β inhibition compared to LPS control (IL-1β [2]) | Percentage TNF-α inhibition compared to LPS control (TNF-α [3]) | Percentage IL-1β inhibition compared to LPS control (IL-1β [4])
CC1=C(CO)C(=O)O[C@@H]([C@@H](C)[C@@]2(O)CC[C@H]3[C@@H]4[C@@H]5O[C@@H]5[C@@]5(O)CC=CC(=O)[C@]5(C)[C@H]4CC[C@@]32C)C1 [27-Hydroxywithanone] | 11.18↑ % | 9.22↑ % | 9.21↑ % | 8.05↑ %
CC1=C(CO)C(=O)O[C@@H]([C@@H](C)[C@H]2CC[C@H]3[C@@H]4CC=C5C[C@@H](O[C@@H]6O[C@H](CO[C@@H]7O[C@H](CO)[C@@H](O)[C@H](O)[C@H]7O)[C@@H](O)[C@H](O)[C@H]6O)C[C@H](O)[C@]5(C)[C@H]4CC[C@]23C)C1 [Withanoside IV] | 29.08↑ % | 19.17↑ % | 21.86↑ % | 10.89↑ %
CC1=C(C)C(=O)O[C@@H]([C@](C)(O)[C@H]2CC[C@H]3[C@@H]4[C@@H]5O[C@@H]5[C@@]5(O)CC=CC(=O)[C@]5(C)[C@H]4CC[C@]23C)C1 [Withanolide] | 15.01↑ % | 7.24↑ % | 5.09↑ % | 5.33↑ %
